Data published in article PMC5440813.

T1: aconitase 2 (ACO2) (Arabidopsis thaliana) (UniProt Q94A28)
T1 sequence: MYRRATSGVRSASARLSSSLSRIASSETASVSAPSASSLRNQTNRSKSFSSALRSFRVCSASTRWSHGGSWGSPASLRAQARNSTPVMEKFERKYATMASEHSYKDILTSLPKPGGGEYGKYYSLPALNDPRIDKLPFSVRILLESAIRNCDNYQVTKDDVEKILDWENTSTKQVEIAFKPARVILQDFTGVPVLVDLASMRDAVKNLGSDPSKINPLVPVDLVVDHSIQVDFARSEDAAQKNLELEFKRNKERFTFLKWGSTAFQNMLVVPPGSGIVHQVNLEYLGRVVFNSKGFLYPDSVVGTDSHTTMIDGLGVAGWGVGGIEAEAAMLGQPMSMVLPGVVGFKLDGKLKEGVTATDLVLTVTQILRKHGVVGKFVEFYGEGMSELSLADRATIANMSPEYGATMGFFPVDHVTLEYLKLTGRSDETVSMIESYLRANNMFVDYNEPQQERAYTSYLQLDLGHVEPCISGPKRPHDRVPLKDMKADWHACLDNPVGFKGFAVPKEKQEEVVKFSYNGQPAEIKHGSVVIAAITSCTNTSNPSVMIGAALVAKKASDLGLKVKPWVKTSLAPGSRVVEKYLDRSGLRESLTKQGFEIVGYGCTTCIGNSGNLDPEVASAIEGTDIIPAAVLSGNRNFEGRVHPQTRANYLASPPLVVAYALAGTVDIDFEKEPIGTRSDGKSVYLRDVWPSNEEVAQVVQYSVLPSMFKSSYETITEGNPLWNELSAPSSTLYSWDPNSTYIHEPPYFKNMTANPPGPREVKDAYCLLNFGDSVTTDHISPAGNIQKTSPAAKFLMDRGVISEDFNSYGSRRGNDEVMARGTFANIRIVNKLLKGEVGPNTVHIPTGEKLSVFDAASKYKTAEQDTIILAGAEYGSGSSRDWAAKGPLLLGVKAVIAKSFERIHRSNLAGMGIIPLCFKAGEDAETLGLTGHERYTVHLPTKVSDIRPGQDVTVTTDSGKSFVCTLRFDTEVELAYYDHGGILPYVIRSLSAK

T2: aconitase 3 (ACO3) (Arabidopsis thaliana) (UniProt Q9SIB9)
T2 sequence: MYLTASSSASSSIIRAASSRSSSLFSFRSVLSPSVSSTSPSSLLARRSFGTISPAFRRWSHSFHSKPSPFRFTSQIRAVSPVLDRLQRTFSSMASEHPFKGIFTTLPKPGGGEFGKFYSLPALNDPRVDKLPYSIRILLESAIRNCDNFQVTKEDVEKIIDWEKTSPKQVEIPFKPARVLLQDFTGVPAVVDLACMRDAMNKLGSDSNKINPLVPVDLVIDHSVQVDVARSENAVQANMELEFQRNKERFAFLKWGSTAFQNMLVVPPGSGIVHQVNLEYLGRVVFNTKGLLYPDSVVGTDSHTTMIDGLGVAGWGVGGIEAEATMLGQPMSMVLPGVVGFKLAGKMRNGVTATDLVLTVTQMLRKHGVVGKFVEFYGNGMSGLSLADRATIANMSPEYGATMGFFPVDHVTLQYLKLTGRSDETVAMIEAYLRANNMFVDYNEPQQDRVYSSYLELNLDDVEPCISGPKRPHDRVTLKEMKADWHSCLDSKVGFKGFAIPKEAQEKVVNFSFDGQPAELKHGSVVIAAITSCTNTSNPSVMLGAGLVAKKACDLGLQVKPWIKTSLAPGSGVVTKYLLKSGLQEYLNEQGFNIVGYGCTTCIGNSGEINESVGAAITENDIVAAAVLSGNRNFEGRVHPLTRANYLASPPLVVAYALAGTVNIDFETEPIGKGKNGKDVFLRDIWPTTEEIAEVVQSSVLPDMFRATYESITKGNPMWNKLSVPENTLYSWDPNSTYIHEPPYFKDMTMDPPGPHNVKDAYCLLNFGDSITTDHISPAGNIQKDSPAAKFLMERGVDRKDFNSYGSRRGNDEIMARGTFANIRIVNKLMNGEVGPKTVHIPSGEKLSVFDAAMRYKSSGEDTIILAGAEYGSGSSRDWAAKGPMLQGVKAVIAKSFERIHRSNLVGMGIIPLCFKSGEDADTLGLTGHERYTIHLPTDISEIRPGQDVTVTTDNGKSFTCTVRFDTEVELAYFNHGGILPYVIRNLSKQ

T3: isocitrate dehydrogenase (IDH) subunit IDH1 (Arabidopsis thaliana) (UniProt Q8LFC0)
T3 sequence: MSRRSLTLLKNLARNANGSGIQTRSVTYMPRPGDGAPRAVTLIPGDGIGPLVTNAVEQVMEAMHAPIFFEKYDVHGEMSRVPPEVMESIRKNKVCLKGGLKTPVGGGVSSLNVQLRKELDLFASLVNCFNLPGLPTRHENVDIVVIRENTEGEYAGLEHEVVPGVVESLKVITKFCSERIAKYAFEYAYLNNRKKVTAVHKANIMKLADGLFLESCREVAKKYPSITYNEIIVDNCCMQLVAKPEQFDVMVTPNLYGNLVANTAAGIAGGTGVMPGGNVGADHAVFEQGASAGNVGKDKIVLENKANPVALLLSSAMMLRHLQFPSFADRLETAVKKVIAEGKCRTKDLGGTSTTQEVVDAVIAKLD

T4: isocitrate dehydrogenase (IDH) subunit IDH2 (Arabidopsis thaliana) (UniProt P93032)
T4 sequence: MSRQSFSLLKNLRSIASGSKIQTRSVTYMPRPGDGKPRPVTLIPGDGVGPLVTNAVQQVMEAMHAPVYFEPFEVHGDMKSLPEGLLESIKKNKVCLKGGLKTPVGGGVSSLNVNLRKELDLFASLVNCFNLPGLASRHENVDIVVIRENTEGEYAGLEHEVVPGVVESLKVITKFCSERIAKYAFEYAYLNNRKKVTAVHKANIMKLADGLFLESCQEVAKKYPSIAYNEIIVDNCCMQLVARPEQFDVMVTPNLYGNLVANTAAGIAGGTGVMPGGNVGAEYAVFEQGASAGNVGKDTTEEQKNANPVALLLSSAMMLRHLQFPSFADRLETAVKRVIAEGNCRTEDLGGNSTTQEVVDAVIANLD

T5: lipoamide dehydrogenase (LPD) 2 (Arabidopsis thaliana) (UniProt Q9M5K2)
T5 sequence: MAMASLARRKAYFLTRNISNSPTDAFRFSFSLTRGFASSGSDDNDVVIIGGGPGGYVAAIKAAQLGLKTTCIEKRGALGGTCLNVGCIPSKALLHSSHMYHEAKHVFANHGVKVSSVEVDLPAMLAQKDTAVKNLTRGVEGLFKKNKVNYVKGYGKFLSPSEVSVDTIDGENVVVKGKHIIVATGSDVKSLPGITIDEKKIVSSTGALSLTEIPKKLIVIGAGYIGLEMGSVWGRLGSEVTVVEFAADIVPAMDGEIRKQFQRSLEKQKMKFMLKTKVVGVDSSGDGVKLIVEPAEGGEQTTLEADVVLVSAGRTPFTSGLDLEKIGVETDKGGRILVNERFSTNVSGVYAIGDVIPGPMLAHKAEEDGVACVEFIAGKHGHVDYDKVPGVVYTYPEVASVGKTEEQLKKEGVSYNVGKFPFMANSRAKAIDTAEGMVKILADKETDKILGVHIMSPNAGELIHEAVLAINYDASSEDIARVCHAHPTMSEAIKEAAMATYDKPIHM


Experiments:
[1] = molecular target: T1, aconitase 2 (ACO2) (Arabidopsis thaliana); assay: affinity purification with mass spectrometry + split reporter + two-hybrid; compromise score that integrates the AP-MS, split-LUC and Y2H data of the 38 x 38 screen (STATIS-like); interaction: compromise score above the threshold of about 0.6
[2] = molecular target: T2, aconitase 3 (ACO3) (Arabidopsis thaliana); assay: as above
[3] = molecular target: T3, isocitrate dehydrogenase (IDH) subunit IDH1 (Arabidopsis thaliana); assay: as above
[4] = molecular target: T4, isocitrate dehydrogenase (IDH) subunit IDH2 (Arabidopsis thaliana); assay: as above
[5] = molecular target: T2, aconitase 3 (ACO3) (Arabidopsis thaliana); assay: affinity purification with mass spectrometry; C-terminal GFP-tagged bait expressed in PSB-D Arabidopsis cell culture; extract (25 mM Tris-HCl pH 7.5, 15 mM MgCl2, 5 mM EGTA, 0.1% NP40) on GFP-Trap_A beads 1 h at 4 °C, washes with 0, 250 and 500 mM NaCl; LC-MS/MS, FC-A score (SAINT); positive: top 10% of scores (3.9)
[6] = molecular target: T5, lipoamide dehydrogenase (LPD) 2 (Arabidopsis thaliana); assay: affinity purification with mass spectrometry + split reporter + two-hybrid; compromise score that integrates the AP-MS, split-LUC and Y2H data of the 38 x 38 screen (STATIS-like); interaction: compromise score above the threshold of about 0.6
[7] = molecular target: oxoglutarate dehydrogenase complex (ODC) subunit ODC2-1 (Arabidopsis thaliana); assay: as above

| binding [1] | binding [2] | binding [3] | binding [4] | binding [5] | binding [6] | binding [7] | Binder |
| --- | --- | --- | --- | --- | --- | --- | --- |
| binds | binds | binds | binds | – | – | – | citrate synthase (CSY) 4 (enzyme, UniProt P20115 1-474) MVFFRSVSAFTRLRSRVQGQQSSLSNSVRWIQMQSSTDLDLKSQLQELIPEQQDRLKKLKSEHGKVQLGNITVDMVIGGMRGMTGLLWETSLLDPEEGIRFRGLSIPECQKVLPTAQSGAEPLPEGLLWLLLTGKVPSKEQVEALSKDLANRAAVPDYVYNAIDALPSTAHPMTQFASGVMALQVQSEFQKAYENGIHKSKFWEPTYEDCLNLIARVPVVAAYVYRRMYKNGDSIPSDKSLDYGANFSHMLGFDDEKVKELMRLYITIHSDHEGGNVSAHTGHLVGSALSDPYLSFAAALNGLAGPLHGLANQEVLLWIKSVVEECGEDISKEQLKEYVWKTLNSGKVIPGYGHGVLRNTDPRYVCQREFALKHLPDDPLFQLVSKLYEVVPPVLTELGKVKNPWPNVDAHSGVLLNHYGLTEARYYTVLFGVSRSLGICSQLIWDRALGLALERPKSVTMDWLEAHCKKASSA |
| – | – | binds | binds | binds | – | – | aconitase 2 (ACO2) (enzyme, UniProt Q94A28 1-995) MYRRATSGVRSASARLSSSLSRIASSETASVSAPSASSLRNQTNRSKSFSSALRSFRVCSASTRWSHGGSWGSPASLRAQARNSTPVMEKFERKYATMASEHSYKDILTSLPKPGGGEYGKYYSLPALNDPRIDKLPFSVRILLESAIRNCDNYQVTKDDVEKILDWENTSTKQVEIAFKPARVILQDFTGVPVLVDLASMRDAVKNLGSDPSKINPLVPVDLVVDHSIQVDFARSEDAAQKNLELEFKRNKERFTFLKWGSTAFQNMLVVPPGSGIVHQVNLEYLGRVVFNSKGFLYPDSVVGTDSHTTMIDGLGVAGWGVGGIEAEAAMLGQPMSMVLPGVVGFKLDGKLKEGVTATDLVLTVTQILRKHGVVGKFVEFYGEGMSELSLADRATIANMSPEYGATMGFFPVDHVTLEYLKLTGRSDETVSMIESYLRANNMFVDYNEPQQERAYTSYLQLDLGHVEPCISGPKRPHDRVPLKDMKADWHACLDNPVGFKGFAVPKEKQEEVVKFSYNGQPAEIKHGSVVIAAITSCTNTSNPSVMIGAALVAKKASDLGLKVKPWVKTSLAPGSRVVEKYLDRSGLRESLTKQGFEIVGYGCTTCIGNSGNLDPEVASAIEGTDIIPAAVLSGNRNFEGRVHPQTRANYLASPPLVVAYALAGTVDIDFEKEPIGTRSDGKSVYLRDVWPSNEEVAQVVQYSVLPSMFKSSYETITEGNPLWNELSAPSSTLYSWDPNSTYIHEPPYFKNMTANPPGPREVKDAYCLLNFGDSVTTDHISPAGNIQKTSPAAKFLMDRGVISEDFNSYGSRRGNDEVMARGTFANIRIVNKLLKGEVGPNTVHIPTGEKLSVFDAASKYKTAEQDTIILAGAEYGSGSSRDWAAKGPLLLGVKAVIAKSFERIHRSNLAGMGIIPLCFKAGEDAETLGLTGHERYTVHLPTKVSDIRPGQDVTVTTDSGKSFVCTLRFDTEVELAYYDHGGILPYVIRSLSAK |
| – | – | – | – | – | binds | binds | isocitrate dehydrogenase (IDH) subunit IDH2 (protein, UniProt P93032 1-367) MSRQSFSLLKNLRSIASGSKIQTRSVTYMPRPGDGKPRPVTLIPGDGVGPLVTNAVQQVMEAMHAPVYFEPFEVHGDMKSLPEGLLESIKKNKVCLKGGLKTPVGGGVSSLNVNLRKELDLFASLVNCFNLPGLASRHENVDIVVIRENTEGEYAGLEHEVVPGVVESLKVITKFCSERIAKYAFEYAYLNNRKKVTAVHKANIMKLADGLFLESCQEVAKKYPSIAYNEIIVDNCCMQLVARPEQFDVMVTPNLYGNLVANTAAGIAGGTGVMPGGNVGAEYAVFEQGASAGNVGKDTTEEQKNANPVALLLSSAMMLRHLQFPSFADRLETAVKRVIAEGNCRTEDLGGNSTTQEVVDAVIANLD |

No constants are given. Whether binding was seen depends on the method and setting. In cells and extracts the contact can be indirect. A yes stands for co-enrichment or nearness to the bait. Other partners may have been found.
